Data source: PubChem BioAssay AID1259308 (NCATS, 2017)
Test: 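Candidate targets for better recombinant protein yield in mammalian cells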 (primary screen). Cells: human HEK293 embryonic kidney cells stably expressing firefly luciferase (HEK-CMV-Luc2-Hygro). Reagents: single siRNA against human genes, 0.8 pmol siRNA per well. Time to read-out: 72 h. Measurement: 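Luciferase light (ONE-Glo) measured on one replicate plate set and viability (CellTiter-Glo) on the other, scaled to a negative control siRNA, with robust z-scores and luciferase per cell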. Reading the numbers: total luciferase, z-score and total luciferase, % of control: higher = more reporter protein produced; luciferase per cell, z-score: higher = more reporter output per viable cell. Rule for the call: 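An siRNA counts as active if its total luciferase robust z-score exceeds 3; genes with two or more such siRNAs out of three were retested with fresh siRNAs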. Calls: active = raised luciferase; inactive = no rise.
This is an unselected part of about 59,000 deposited reagents. Of all reagents, about 1,510 (2.6%) were called active. 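Calls use total luciferase alone and ignore viability, so some active siRNAs may act by altering cell number.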 Entries without a mark were called inactive. Reagents against one gene are numbered here. Not all columns of the deposit are shown. Reagent sequences are not shown.

no.	Gene	reagent	total luciferase, z-score	total luciferase, % of control	luciferase per cell, z-score
1	ZNF394 (zinc finger protein 394)	1	-0.212	77.7	-0.508
2	ZNF394 (zinc finger protein 394)	2	-0.314	75.6	0.00513
3	ZNF394 (zinc finger protein 394)	3	1.29	108	1.53
4	DEGS1 (delta 4-desaturase, sphingolipid 1)	1	0.791	97.6	0.575
5	DEGS1 (delta 4-desaturase, sphingolipid 1)	2	-0.0504	80.9	-0.169
6	DEGS1 (delta 4-desaturase, sphingolipid 1)	3	0.266	87.2	-0.699
7	SLK (STE20 like kinase)	1	-0.625	69.5	-0.279
8	SLK (STE20 like kinase)	2	-0.258	76.8	-0.635
9	SLK (STE20 like kinase)	3	0.0431	82.7	-0.735
10	ITPRIPL1 (ITPRIP like 1)	1	3.79 (active)	157	2.59
11	ITPRIPL1 (ITPRIP like 1)	2	1.28	107	0.677
12	ITPRIPL1 (ITPRIP like 1)	3	1.7	116	1.02
13	SHOX2 (SHOX homeobox 2)	1	0.46	91	-0.0441
14	SHOX2 (SHOX homeobox 2)	2	-0.472	72.5	-1.05
15	SHOX2 (SHOX homeobox 2)	3	1.35	109	0.975

2 entries from above, ordered by “total luciferase, % of control”, highest first.
Gene	reagent	total luciferase, z-score	total luciferase, % of control	luciferase per cell, z-score
ZNF394 (zinc finger protein 394)	1	-0.212	77.7	-0.508
ZNF394 (zinc finger protein 394)	2	-0.314	75.6	0.00513

Further results follow:
no.	Gene	reagent	total luciferase, z-score	total luciferase, % of control	luciferase per cell, z-score
16	TINF2 (TERF1 interacting nuclear factor 2)	1	-1.01	61.8	-0.229
17	TINF2 (TERF1 interacting nuclear factor 2)	2	-0.545	71	-1.19
18	TINF2 (TERF1 interacting nuclear factor 2)	3	0.127	84.4	-0.312
19	MEP1A (meprin A subunit alpha)	1	-0.59	70.2	-1.27
20	MEP1A (meprin A subunit alpha)	2	-0.25	76.9	-0.644
21	MEP1A (meprin A subunit alpha)	3	1.68	115	0.74
22	CYP4A22 (cytochrome P450 family 4 subfamily A member 22)	1	-2.06	40.9	-1.55
23	CYP4A22 (cytochrome P450 family 4 subfamily A member 22)	2	-0.736	67.3	0.794
24	CYP4A22 (cytochrome P450 family 4 subfamily A member 22)	3	0.8	97.8	0.876
